Assay results as given in ChEMBL document CHEMBL4316593 (Eur J Med Chem, 2019).
This continues a long series; more values of the same kind are listed elsewhere.

Experiments:
Format in all cases: cell-based
Details in all cases: U-87MG ATCC
[1] = Inhibition of RTK/PI3K/AKT/mTOR signaling in human U87 cells assessed as down regulation of GINM1 gene expression at cytotoxic IC50 measured after 48 hrs relative to control
[2] = Inhibition of RTK/PI3K/AKT/mTOR signaling in human U87 cells assessed as down regulation of ZNF641 gene expression at cytotoxic IC50 measured after 48 hrs relative to control
[3] = Inhibition of RTK/PI3K/AKT/mTOR signaling in human U87 cells assessed as down regulation of DDX24 gene expression at cytotoxic IC50 measured after 48 hrs relative to control
[4] = Inhibition of RTK/PI3K/AKT/mTOR signaling in human U87 cells assessed as down regulation of DCAF12 gene expression at cytotoxic IC50 measured after 48 hrs relative to control
[5] = Inhibition of RTK/PI3K/AKT/mTOR signaling in human U87 cells assessed as down regulation of MAD2L1 gene expression at cytotoxic IC50 measured after 48 hrs relative to control
[6] = Inhibition of RTK/PI3K/AKT/mTOR signaling in human U87 cells assessed as down regulation of OSGIN2 gene expression at cytotoxic IC50 measured after 48 hrs relative to control
[7] = Inhibition of RTK/PI3K/AKT/mTOR signaling in human U87 cells assessed as up regulation of LRRC75A-AS1 gene expression at cytotoxic IC50 measured after 48 hrs relative to control
[8] = Inhibition of RTK/PI3K/AKT/mTOR signaling in human U87 cells assessed as up regulation of SSPO gene expression at cytotoxic IC50 measured after 48 hrs relative to control
[9] = Inhibition of RTK/PI3K/AKT/mTOR signaling in human U87 cells assessed as up regulation of transcriptional regulating factor 1 gene expression at cytotoxic IC50 measured after 48 hrs relative to control
[10] = Inhibition of RTK/PI3K/AKT/mTOR signaling in human U87 cells assessed as up regulation of activating transcription factor 5 gene expression at cytotoxic IC50 measured after 48 hrs relative to control
[11] = Inhibition of RTK/PI3K/AKT/mTOR signaling in human U87 cells assessed as down regulation of NEFM gene expression at cytotoxic IC50 measured after 48 hrs relative to control
[12] = Inhibition of RTK/PI3K/AKT/mTOR signaling in human U87 cells assessed as up regulation of keratin 19 gene expression at cytotoxic IC50 measured after 48 hrs relative to control
[13] = Inhibition of RTK/PI3K/AKT/mTOR signaling in human U87 cells assessed as up regulation of transmembrane protein 168 gene expression at cytotoxic IC50 measured after 48 hrs relative to control
[14] = Inhibition of RTK/PI3K/AKT/mTOR signaling in human U87 cells assessed as up regulation of family with sequence similarity 71 member E1 gene expression at cytotoxic IC50 measured after 48 hrs relative to control
[15] = Inhibition of RTK/PI3K/AKT/mTOR signaling in human U87 cells assessed as up regulation of spire type actin nucleation factor 2 gene expression at cytotoxic IC50 measured after 48 hrs relative to control
[16] = Inhibition of RTK/PI3K/AKT/mTOR signaling in human U87 cells assessed as down regulation of DHDDS gene expression at cytotoxic IC50 measured after 48 hrs relative to control
[17] = Inhibition of RTK/PI3K/AKT/mTOR signaling in human U87 cells assessed as down regulation of HAT1 gene expression at cytotoxic IC50 measured after 48 hrs relative to control
[18] = Inhibition of RTK/PI3K/AKT/mTOR signaling in human U87 cells assessed as up regulation of integrin subunit alpha 6 gene expression at cytotoxic IC50 measured after 48 hrs relative to control
[19] = Inhibition of RTK/PI3K/AKT/mTOR signaling in human U87 cells assessed as up regulation of transducin beta like 2 gene expression at cytotoxic IC50 measured after 48 hrs relative to control
[20] = Inhibition of RTK/PI3K/AKT/mTOR signaling in human U87 cells assessed as up regulation of adhesion G protein-coupled receptor A3 gene expression at cytotoxic IC50 measured after 48 hrs relative to control
[21] = Inhibition of RTK/PI3K/AKT/mTOR signaling in human U87 cells assessed as up regulation of jagged 1 gene expression at cytotoxic IC50 measured after 48 hrs relative to control
[22] = Inhibition of RTK/PI3K/AKT/mTOR signaling in human U87 cells assessed as down regulation of FIGNL1 gene expression at cytotoxic IC50 measured after 48 hrs relative to control
[23] = Inhibition of RTK/PI3K/AKT/mTOR signaling in human U87 cells assessed as down regulation of NDUFA6 gene expression at cytotoxic IC50 measured after 48 hrs relative to control
[24] = Inhibition of RTK/PI3K/AKT/mTOR signaling in human U87 cells assessed as up regulation of eukaryotic translation initiation factor 4 gamma 3 gene expression at cytotoxic IC50 measured after 48 hrs relative to control
[25] = Inhibition of RTK/PI3K/AKT/mTOR signaling in human U87 cells assessed as down regulation of CDC42BPB gene expression at cytotoxic IC50 measured after 48 hrs relative to control
[26] = Inhibition of RTK/PI3K/AKT/mTOR signaling in human U87 cells assessed as up regulation of golgi glycoprotein 1 gene expression at cytotoxic IC50 measured after 48 hrs relative to control
[27] = Inhibition of RTK/PI3K/AKT/mTOR signaling in human U87 cells assessed as down regulation of PLAA gene expression at cytotoxic IC50 measured after 48 hrs relative to control
[28] = Inhibition of RTK/PI3K/AKT/mTOR signaling in human U87 cells assessed as down regulation of EFL1 gene expression at cytotoxic IC50 measured after 48 hrs relative to control
[29] = Inhibition of RTK/PI3K/AKT/mTOR signaling in human U87 cells assessed as up regulation of CALCOCO1 gene expression at cytotoxic IC50 measured after 48 hrs relative to control
[30] = Inhibition of RTK/PI3K/AKT/mTOR signaling in human U87 cells assessed as down regulation of EGR1 gene expression at cytotoxic IC50 measured after 48 hrs relative to control
[31] = Inhibition of RTK/PI3K/AKT/mTOR signaling in human U87 cells assessed as down regulation of CDKN3 gene expression at cytotoxic IC50 measured after 48 hrs relative to control
[32] = Inhibition of RTK/PI3K/AKT/mTOR signaling in human U87 cells assessed as up regulation of ubiquitin specific peptidase 3 gene expression at cytotoxic IC50 measured after 48 hrs relative to control

Question: What does the source list for `CC(=O)C(=NNc1ccccc1C#N)C(C)=O`?
Answer: log2FC [1]: -0.572; log2FC [2]: -0.74; log2FC [3]: -0.544; log2FC [4]: -0.505; log2FC [5]: -0.817; log2FC [6]: -1.05; log2FC [7]: 0.549; log2FC [8]: 1.86; log2FC [9]: 1.47; log2FC [10]: 1.53; log2FC [11]: -7.64; log2FC [12]: 1.55; log2FC [13]: 0.879; log2FC [14]: 1.47; log2FC [15]: 0.784; log2FC [16]: -0.613; log2FC [17]: -1.75; log2FC [18]: 1.01; log2FC [19]: 0.72; log2FC [20]: 1.16; log2FC [21]: 0.956; log2FC [22]: -1.75; log2FC [23]: -0.605; log2FC [24]: 0.853; log2FC [25]: -0.459; log2FC [26]: 1.07; log2FC [27]: -0.883; log2FC [28]: -1.58; log2FC [29]: 0.565; log2FC [30]: -3.24; log2FC [31]: -0.814; log2FC [32]: 0.679
